Results taken from patent US9018171B2, “Uses of an immunomodulatory protein (GMI) from Ganoderma microsporum” (Mycomagic Biotechnology Co., Ltd., priority 2010, dated 2015).

System: NCI60 tumour cell lines
Assay: NCI60 in vitro screening, one dose, whole panel
Format: cell-based
Conditions: all cell lines

B1: GMI: immunomodulatory protein from Ganoderma microsporum, amino acid sequence SEQ ID NO: 3, manufactured by Mycomagic Biotechnology Co., Ltd. (protein, listed as Ganoderma microsporum)
chain: MSDTALIFTLAWNVKQLAFDYTPNWGRGRPSSFIDTVTFPTVLTDKAYTYRVVVSGKDLGVRPSYAVESDGSQKINFLEYNSGYGIADTNTIQVYVIDPDTGNNFIVAQWN
Growth Percent, Delta: 157.03%
Growth Percent, Range: 224.41%
